{"source": "PubChem BioAssay AID1259424 (University of Nebraska Medical Center, 2018)", "aim": "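Seek colon cancer survival genes behaving like KSR1, using a six-gene signature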 (primary screen)", "cells": "human HCT116 colon cancer cells", "reagent": "siRNA pool against human genes, 50 nM", "detection": "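Six signature mRNAs by branched-DNA multiplex assay, scaled to two housekeeping genes and non-targeting median, log2; matched to mean KSR1 knockdown profile by Pearson correlation and euclidean distance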", "direction": "mean correlation with KSR1 profile: higher = expression change more like KSR1 knockdown", "note": "Here is a random part of about 14,000 deposited reagents. 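Higher correlation or smaller distance means closer resemblance to KSR1 loss; control wells, including KSR1 knockdowns, recur on many plates.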 Further read-outs or replicates are left out here. Not stated in the record: the time to read-out."}
{"gene symbol":"MXD3","mean correlation with KSR1 profile":0.471}
{"gene symbol":"HLA-F","mean correlation with KSR1 profile":-0.252}
{"gene symbol":"ZRSR2","mean correlation with KSR1 profile":0.145}
{"gene symbol":"NOC3L","mean correlation with KSR1 profile":-0.327}
{"gene symbol":"KCNK5","mean correlation with KSR1 profile":-0.344}
{"gene symbol":"SMN1","mean correlation with KSR1 profile":0.325}
{"gene symbol":"SLC22A14","mean correlation with KSR1 profile":-0.602}
{"gene symbol":"CAP1","mean correlation with KSR1 profile":-0.195}
{"gene symbol":"E2F1","mean correlation with KSR1 profile":-0.271}
{"gene symbol":"SNX11","mean correlation with KSR1 profile":-0.339}
{"gene symbol":"GPR42","mean correlation with KSR1 profile":0.039}
{"gene symbol":"KLF6","mean correlation with KSR1 profile":0.159}
{"gene symbol":"FCAR","mean correlation with KSR1 profile":-0.334}
{"gene symbol":"STK11IP","mean correlation with KSR1 profile":-0.537}
{"gene symbol":"NPRL3","mean correlation with KSR1 profile":-0.414}
{"gene symbol":"MAP3K1","mean correlation with KSR1 profile":-0.0977}
{"gene symbol":"TNFSF13B","mean correlation with KSR1 profile":0.72}
{"gene symbol":"DMTF1","mean correlation with KSR1 profile":-0.815}
{"gene symbol":"GJB2","mean correlation with KSR1 profile":-0.053}
